Reference: patent publication US20220273710A1 (AUTOLUS, published 2022)
Results are given in words; binding and its absence hold for the method and conditions named. Some entries that bind do so weakly or less than the wild type.

T1: Recombinant purified CD79b (R&D systems) (human, UniProt P40259 29-159)
T1 construct: Bought protein
T1 sequence: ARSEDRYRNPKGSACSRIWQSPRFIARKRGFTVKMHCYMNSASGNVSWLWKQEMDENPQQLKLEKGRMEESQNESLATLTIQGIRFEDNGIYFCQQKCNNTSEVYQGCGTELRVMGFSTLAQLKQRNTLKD


Columns and labels:
[1] = target: T1, Recombinant purified CD79b (R&D systems); test: SPR, Biacore 8K
[2] = target: T1, Recombinant purified CD79b (R&D systems); test: SPR, Biacore 8K, antibody immobilised on CM5 chip, CD79b as analyte
[3] = target: CD79b on Raji, Daudi and MM1.s cell lines (human) (UniProt P40259); test: flow cytometry on Raji, Daudi and MM1.s cells, 5 µg/ml polatuzumab detected with anti-murine Fc secondary antibody-APC
[4] = target: CD79b on Raji, Daudi and MM1.s cell lines (human) (UniProt P40259); test: flow cytometry, cells stained with 5 µg/ml polatuzumab, anti-murine Fc secondary antibody conjugated to APC

Binder | binding [1] | binding [2] | binding [3] | binding [4]
2E8 (antibody, mouse IgG2a, V domains shown, also called 2E8 antibody; clone 2E8) VH: AVQLVESGGGLVQPKESLKISCAASGFTFSNAAMYWVRQAPGKGLEWVARIRTKPNNYATNYADSVKGRFTISRDDSKSMVYLQMDNLKTEDTAMYYCTYYDGSSYAMDAWGQGTSVTVSS VL: DVVLTQTPVSLSVTLGDQASISCRSSQSLEYSDGYTYLDWYLQKPGQSPQLLIYEVSNRFSGVPDRFIGSGSGTDFTLKISRVEPEDLGVYYCFQATHDPYTFGAGTKLEIK | binds | binds | – | –
3H2 (antibody, mouse IgG2a, V domains shown, also called 3H2 antibody; clone 3H2) VH: AVQLVESGGGLVQPKESLKLSCAASGFTFSHTAMYWVRQAPGKGLECVARIRIQPKNYATYYADSVKGRFTISRDDSKSMVYLQMDNLKTEDTAMYYCTAAGFGFDYWGQGVMVTVSS VL: DVVLTQTPVSLSVTLGDQASISCRSSQSLEYSDGNTYLEWYLQKPGQSPQLLIYEVSKRFSGVPDRFIGSGSGTDFTLKISRVEPEDLGIYYCLQATHDPFTFGSGTKLEIK | binds | binds | – | –

More lines, now with the values ahead:

binding [1] | binding [2] | binding [3] | binding [4] | Binder
binds | binds | – | – | 7G4 (antibody, mouse IgG2a, V domains shown, also called 7G4 antibody; clone 7G4) VH: AVQLVESGGGLVQPKESLKISCAASGFTFSNAAMYWVRQAPGKGLEWVARIRTKPNNYATNYADSVKGRFTISRDDSKSMVYLQMDNLKTEDTAMYYCTYYDGSSYAMDAWGQGTSVTVSS VL: DVVLTQTPVSLSVTLGDQASISCRSSQSLEYSDGYTYLDWYLQKPGQSPQLLIYEISNRFSGVPDRFIGSGSGTDFTLKISRVEPEDLGVYYCFQATHDPYTFGAGTKLEIK
– | – | binds | binds | Polatuzumab (antibody, V domains shown, polatuzumab'; also called humanised anti-CD79b 2F2; anti-CD79b antibody polatuzumab) VH: EVQLVESGGGLVQPGGSLRLSCAASGYTFSSYWIEWVRQAPGKGLEWIGEILPGGGDTNYNEIFKGRATFSADTSKNTAYLQMNSLRAEDTAVYYCTRRVPIRLDYWGQGTLVTVSS VL: DIQLTQSPSSLSASVGDRVTITCKASQSVDYEGDSFLNWYQQKPGKAPKLLIYAASNLESGVPSRFSGSGSGTDFTLTISSLQPEDFATYYCQQSNEDPLTFGQGTKVEIKR
